Reference: the supplement of paper PMC4604168 (melanoma cell lines)
Some of the results follow. Repeats are few or missing, and single values can be far off.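 The apoptosis fraction was the count of cleaved-PARP antibody-stained nuclei relative to all DNA-stained nuclei, imaged in 1,536-well plates. Screening doses were set so most cells survived, and baseline and induced cleaved-PARP levels vary greatly across cell lines.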

Assays:
Test in all cases: cleaved PARP positive nuclei fraction relative to DMSO control; melanoma cells; higher = more apoptosis
Details in all cases: library dose: low library concentration; 72 h
CBRC034 = system: CBRC034 (line from a melanoma biopsy)
COLO792 = system: COLO792
COLO800 = system: COLO800
COLO829 = system: COLO829
G361 = system: G361
IPC-298 = system: IPC-298
IST-MEL1 = system: IST-MEL1
LB2518-MEL = system: LB2518-MEL
LOXIMVI = system: LOXIMVI
MEL-HO = system: MEL-HO
MZ2-MEL = system: MZ2-MEL
MeWo = system: MeWo
RPMI7951 = system: RPMI7951
RVH-421 = system: RVH-421
SkMel28 = system: SkMel28
SkMel2 = system: SkMel2
SkMel30 = system: SkMel30
UACC62 = system: UACC62

| SMILES | cleaved PARP positive nuclei fraction (CBRC034) [%] | cleaved PARP positive nuclei fraction (COLO792) [%] | cleaved PARP positive nuclei fraction (COLO800) [%] | cleaved PARP positive nuclei fraction (COLO829) [%] | cleaved PARP positive nuclei fraction (G361) [%] | cleaved PARP positive nuclei fraction (IPC-298) [%] | cleaved PARP positive nuclei fraction (IST-MEL1) [%] | cleaved PARP positive nuclei fraction (LB2518-MEL) [%] | cleaved PARP positive nuclei fraction (LOXIMVI) [%] | cleaved PARP positive nuclei fraction (MEL-HO) [%] | cleaved PARP positive nuclei fraction (MZ2-MEL) [%] | cleaved PARP positive nuclei fraction (MeWo) [%] | cleaved PARP positive nuclei fraction (RPMI7951) [%] | cleaved PARP positive nuclei fraction (RVH-421) [%] | cleaved PARP positive nuclei fraction (SkMel28) [%] | cleaved PARP positive nuclei fraction (SkMel2) [%] | cleaved PARP positive nuclei fraction (SkMel30) [%] | cleaved PARP positive nuclei fraction (UACC62) [%] |
| --- | --- | --- | --- | --- | --- | --- | --- | --- | --- | --- | --- | --- | --- | --- | --- | --- | --- | --- |
| O=C(Nc1cc(C(F)(F)F)cc(C(F)(F)F)c1)c1cc(Cl)ccc1O + Cc1ccc(Nc2nccc(N(C)c3ccc4c(C)n(C)nc4c3)n2)cc1S(N)(=O)=O [Pazopanib] (first compound 0.016 µM, partner dose 0.4 µM) | 32 | 46.5 | 94.4 | 84.1 | 99.4 | 47.9 | 61.8 | 133 | 118 | 107 | 25 | 32.5 | 96.7 | 52.1 | 79.8 | 108 | 41.7 | 102 |
| O=C(/C=C/c1cccnc1)NCCCCC1CCN(C(=O)c2ccccc2)CC1 + CC(C)C[C@H](NC(=O)[C@H](Cc1ccccc1)NC(=O)c1cnccn1)B(O)O [Bortezomib] (first compound 0.01 µM, partner dose 0.001 µM) | 693 | 504 | 270 | 327 | 5370 | 577 | 131 | 212 | 110 | 276 | 608 | 100 | 92.5 | 144 | 132 | 1860 | 23.9 | 65.5 |
| CCCCCCCCCCCCCCCCCCOP(=O)([O-])OC1CC[N+](C)(C)CC1 [Perifosine] + COc1ccc(C2=N[C@@H](c3ccc(Cl)cc3)[C@@H](c3ccc(Cl)cc3)N2C(=O)N2CCNC(=O)C2)c(OC(C)C)c1 [Nutlin-3] (first compound 0.4 µM, partner dose 0.1 µM) | 171 | 40.9 | 89.5 | 117 | 113 | 87.4 | 177 | 99.2 | 168 | 107 | 45 | 53.3 | 148 | 47.3 | 73.3 | 134 | 67.1 | 159 |
| O=c1[nH]nc(Sc2ncc([N+](=O)[O-])s2)n1-c1ccc2c(c1)OCCO2 + C[C@]1(c2nc3c(C(N)=O)cccc3[nH]2)CCCN1 [Veliparib] (first compound 0.2 µM, partner dose 1.4 µM) | 79.5 | 47.6 | 125 | 147 | 87.1 | 85.1 | 61.7 | 90.9 | 47.6 | 137 | 122 | 104 | 35.7 | 51.4 | 26.3 | 191 | 63.1 | 81.3 |
| O=C(/C=C/c1cccnc1)NCCCCC1CCN(C(=O)c2ccccc2)CC1 + Cc1cc(Nc2cc(N3CCN(C)CC3)nc(/C=C/c3ccccc3)n2)n[nH]1 [ENMD2076] (first compound 0.01 µM, partner dose 0.04 µM) | 1270 | 554 | 294 | 175 | 4380 | 675 | 205 | 609 | 251 | 82.8 | 671 | 129 | 49.4 | 71.8 | 170 | 2590 | 62.6 | 101 |
| CCCCCCCCCCCCCCCCCCOP(=O)([O-])OC1CC[N+](C)(C)CC1 [Perifosine] + CNC(=O)c1cc(Oc2ccc(NC(=O)Nc3ccc(Cl)c(C(F)(F)F)c3)cc2)ccn1 [sorafenib] (first compound 0.4 µM, partner dose 0.4 µM) | 118 | 131 | 200 | 73.2 | 157 | 63.8 | 122 | 136 | 119 | 59 | 56.7 | 18.7 | 107 | 53.4 | 83.1 | 74 | 19.7 | 86.1 |
| COc1cc([C@@H]2c3cc4c(cc3[C@@H](O[C@@H]3O[C@@H]5CO[C@@H](C)O[C@H]5[C@H](O)[C@H]3O)[C@H]3COC(=O)[C@H]23)OCO4)cc(OC)c1O [etoposide] + CCCCCCCCc1ccc(CCC(N)(CO)CO)cc1 [fingolimod] (first compound 0.02 µM, partner dose 2 µM) | 139 | 61.6 | 169 | 63.9 | 97.6 | 48.4 | 130 | 52.8 | 225 | 43.5 | 54.5 | 237 | 118 | 235 | 97.5 | 105 | 49.7 | 59.7 |
| O=c1[nH]nc(Sc2ncc([N+](=O)[O-])s2)n1-c1ccc2c(c1)OCCO2 + Cn1cnc2c(F)c(Nc3ccc(Br)cc3Cl)c(C(=O)NOCCO)cc21 [selumetinib] (first compound 0.2 µM, partner dose 0.015 µM) | 96 | 51.5 | 89.2 | 99.9 | 166 | 108 | 55 | 145 | 65.7 | 127 | 210 | 205 | 114 | 106 | 78.1 | 82 | 84.1 | 138 |
| Cc1cn(-c2cc(NC(=O)c3ccc(C)c(Nc4nccc(-c5cccnc5)n4)c3)cc(C(F)(F)F)c2)cn1 [nilotinib] + COCC[n+]1c2c(n(Cc3cnccn3)c1C)C(=O)c1ccccc1C2=O [YM155] (first compound 0.2 µM, partner dose 0.0004 µM) | 33.6 | 120 | 26.2 | 86.2 | 78.7 | 89.4 | 70.2 | 102 | 33.3 | 119 | 115 | 29.7 | 261 | 121 | 152 | 180 | 314 | 23.6 |
| Cc1cc(Nc2cc(N3CCN(C)CC3)nc(Sc3ccc(NC(=O)C4CC4)cc3)n2)n[nH]1 [Tozasertib] + CN(c1ncccc1CNc1nc(Nc2ccc3c(c2)CC(=O)N3)ncc1C(F)(F)F)S(C)(=O)=O [PF562271] (first compound 0.006 µM, partner dose 0.08 µM) | 31.8 | 168 | 75.1 | 134 | 74.6 | 108 | 29.4 | 61.4 | 48.3 | 185 | 103 | 129 | 125 | 48.5 | 83.9 | 107 | 119 | 57.5 |
| Cc1cc(Nc2cc(N3CCN(C)CC3)nc(Sc3ccc(NC(=O)C4CC4)cc3)n2)n[nH]1 [Tozasertib] + Cn1cnc2c(F)c(Nc3ccc(Br)cc3Cl)c(C(=O)NOCCO)cc21 [selumetinib] (first compound 0.006 µM, partner dose 0.015 µM) | 82.7 | 84.5 | 105 | 105 | 73.7 | 51.1 | 130 | 149 | 155 | 42.9 | 88.4 | 144 | 92.9 | 65.2 | 76.8 | 79.7 | 64.8 | 122 |
| O=c1[nH]nc(Sc2ncc([N+](=O)[O-])s2)n1-c1ccc2c(c1)OCCO2 + CC1(C)CCC(c2ccc(Cl)cc2)=C(CN2CCN(c3ccc(C(=O)NS(=O)(=O)c4ccc(N[C@H](CCN5CCOCC5)CSc5ccccc5)c(S(=O)(=O)C(F)(F)F)c4)cc3)CC2)C1 [ABT263] (first compound 0.2 µM, partner dose 0.4 µM) | 301 | 495 | 114 | 93.7 | 166 | 175 | 78.5 | 259 | 349 | 146 | 335 | 309 | 136 | 219 | 89.8 | 149 | 182 | 75.7 |
| O=C(/C=C/c1cccnc1)NCCCCC1CCN(C(=O)c2ccccc2)CC1 + C[C@@H](N)c1ccc(C(=O)Nc2ccnc3[nH]ccc23)cc1 [RKI983] (first compound 0.01 µM, partner dose 0.4 µM) | 1100 | 1540 | 200 | 328 | 4090 | 1200 | 71.8 | 111 | 237 | 196 | 1460 | 252 | 121 | 226 | 78.5 | 2050 | 201 | 47.4 |
| CC[C@]1(O)C[C@H]2CN(CCc3c([nH]c4ccccc34)[C@@](C(=O)OC)(c3cc4c(cc3OC)N(C=O)[C@H]3[C@@](O)(C(=O)OC)[C@H](OC(C)=O)[C@]5(CC)C=CCN6CC[C@]43[C@@H]65)C2)C1 [vincristine] + CC1(C)CCC(c2ccc(Cl)cc2)=C(CN2CCN(c3ccc(C(=O)NS(=O)(=O)c4ccc(N[C@H](CCN5CCOCC5)CSc5ccccc5)c(S(=O)(=O)C(F)(F)F)c4)cc3)CC2)C1 [ABT263] (first compound 0.0001 µM, partner dose 0.4 µM) | 137 | 278 | 212 | 107 | 102 | 53.5 | 183 | 155 | 143 | 73.9 | 192 | 457 | 210 | 202 | 82 | 140 | 73.1 | 64.2 |
| COc1cc([C@@H]2c3cc4c(cc3[C@@H](O[C@@H]3O[C@@H]5CO[C@@H](C)O[C@H]5[C@H](O)[C@H]3O)[C@H]3COC(=O)[C@H]23)OCO4)cc(OC)c1O [etoposide] + Clc1ccc(Nc2nnc(Cc3ccncc3)c3ccccc23)cc1 [vatalanib] (first compound 0.02 µM, partner dose 2 µM) | 120 | 61.4 | 149 | 88.8 | 73.7 | 56.5 | 59.9 | 50.8 | 171 | 50.9 | 124 | 144 | 102 | 66.6 | 188 | 144 | 43.1 | 67.1 |
| Cc1ccc(Nc2nccc(N(C)c3ccc4c(C)n(C)nc4c3)n2)cc1S(N)(=O)=O [Pazopanib] + O=C(O)[C@@H]1[O][Sb](=[O])([O][Sb]2(=[O])[O][C@H]([C@H](O)CO)[C@H](O)[C@H](C(=O)O)[O]2)[O][C@H]([C@H](O)CO)[C@@H]1O [stibogluconate] (first compound 0.4 µM, partner dose 2 µM) | 62.6 | 87.2 | 89.6 | 83.1 | 89.7 | 113 | 129 | 122 | 41.9 | 33.1 | 115 | 613 | 158 | 172 | 81.8 | 125 | 102 | 62.3 |
| O=C(/C=C/c1cccnc1)NCCCCC1CCN(C(=O)c2ccccc2)CC1 + CC(=O)O[C@@]12CO[C@@H]1C[C@H](O)[C@@]1(C)C(=O)[C@H](O)C3=C(C)[C@@H](OC(=O)[C@H](O)[C@@H](NC(=O)OC(C)(C)C)c4ccccc4)C[C@@](O)([C@@H](OC(=O)c4ccccc4)[C@H]21)C3(C)C [Docetaxel] (first compound 0.01 µM, partner dose 0.0001 µM) | 1990 | 567 | 318 | 448 | 2240 | 550 | 256 | 289 | 105 | 464 | 1200 | 686 | 219 | 135 | 90.8 | 2110 | 762 | 103 |

Some values from the results shown.
cleaved PARP positive nuclei fraction (UACC62) [%], O=c1[nH]nc(Sc2ncc([N+](=O)[O-])s2)n1-c1ccc2c(c1)OCCO2 + Cn1cnc2c(F)c(Nc3ccc(Br)cc3Cl)c(C(=O)NOCCO)cc21 [selumetinib] (first compound 0.2 µM, partner dose 0.015 µM) reads 138
cleaved PARP positive nuclei fraction (SkMel28) [%], COc1cc([C@@H]2c3cc4c(cc3[C@@H](O[C@@H]3O[C@@H]5CO[C@@H](C)O[C@H]5[C@H](O)[C@H]3O)[C@H]3COC(=O)[C@H]23)OCO4)cc(OC)c1O [etoposide] + CCCCCCCCc1ccc(CCC(N)(CO)CO)cc1 [fingolimod] (first compound 0.02 µM, partner dose 2 µM) reads 97.5
